Results reported in publication PMC2875737, “Determination of drug-like properties of a novel antileishmanial compound: In vitro absorption, distribution, metabolism, and excretion studies” (Indian Journal of Pharmacology, 2009).

Test system: rat liver microsomes
Assay: Metabolism by liver microsomal enzymes
Assay type: in vitro ADME
Details: rat liver microsomes 0.5 mg protein/ml, 10 μM, 1 hour, 37°C, NADPH regeneration system; ± SEM
Experimental: Ethical clearance was obtained from Animal Ethics Committee of Indian Institute of Chemical Biology for use of animals for the present study. […] The % stability (% compound remaining after metabolism) was calculated as follows:
(3) % Compound remaining=100×(peak area of 1 hour sampl/peak area of 0 hour sample)
For 0 hour sample, the compound was added after addition of ice-cold acetonitrile and then vortexed, followed by centrifugation as mentioned above.

% Parent compound remaining, result: 90.33 ± 1.30%
Compound: CC(C)NCC(O)COc1ccc(CC(N)=O)cc1 (stereo not shown) [Atenolol]
